Results deposited as PubChem BioAssay AID1259331 (Drosophila RNAi Screening Center, 2017)
Screen: 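Genes whose knock-down changes cell survival under toxic zinc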 (primary screen). System: Drosophila S2R+ cells. Reagent: long dsRNA against Drosophila genes. Timing: 5 days (4 days knock-down, then 1 day zinc). Treatment: zinc chloride at 15 mM final level for 1 day. Read-out: 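Total cellular ATP measured by luciferase luminescence as a viability proxy, turned into Z scores from three plate copies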. Direction: mean Z score: higher = more ATP than other wells, better survival under zinc; ATP luminescence: higher = more ATP, more viable cells. Call rule: 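Hit when the absolute Z score is greater than 1.5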. Meaning of the calls: active = hit, ATP up or down; inactive = not a hit.
The deposit covers about 3,100 reagents; this is a part drawn at random. In the full data, 126 (4.1%) are marked active. 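Calls are per reagent; zinc was so toxic that few knock-downs lowered ATP further, so most hits raise ATP.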 The raw values are shown without normalisation. A number with no mark means an inactive call. No sequences are given here. Not stated in the record: the amount of reagent.

{"target": "p24-1", "PubChem SID": "SID104199619", "mean Z score": "2.92 (active)", "ATP luminescence, replicate 1": 1.14e5, "ATP luminescence, replicate 2": 1.15e5}
{"target": "p24-1", "PubChem SID": "SID104205262", "mean Z score": 0.469, "ATP luminescence, replicate 1": 69344, "ATP luminescence, replicate 2": 59654}
{"target": "CG10183", "PubChem SID": "SID104193995", "mean Z score": 0.499, "ATP luminescence, replicate 1": 40245, "ATP luminescence, replicate 2": 65485}
{"target": "CG10183", "PubChem SID": "SID104203889", "mean Z score": 0.27, "ATP luminescence, replicate 1": 55025, "ATP luminescence, replicate 2": 56533}
{"target": "CG42542", "PubChem SID": "SID104195341", "mean Z score": -0.62, "ATP luminescence, replicate 1": 42028, "ATP luminescence, replicate 2": 35031}
{"target": "CG42542", "PubChem SID": "SID104205220", "mean Z score": -0.13, "ATP luminescence, replicate 1": 60517, "ATP luminescence, replicate 2": 50003}
{"target": "Nrk", "PubChem SID": "SID104187272", "mean Z score": -0.177, "ATP luminescence, replicate 1": 78554, "ATP luminescence, replicate 2": 70045}
{"target": "Nrk", "PubChem SID": "SID104214301", "mean Z score": -0.0466, "ATP luminescence, replicate 1": 50610, "ATP luminescence, replicate 2": 41411}
{"target": "Nrk", "PubChem SID": "SID104214302", "mean Z score": -0.00644, "ATP luminescence, replicate 1": 49332, "ATP luminescence, replicate 2": 44548}
{"target": "CG2698", "PubChem SID": "SID104195239", "mean Z score": -0.0709, "ATP luminescence, replicate 1": 36798, "ATP luminescence, replicate 2": 56966}
{"target": "CG2698", "PubChem SID": "SID104217172", "mean Z score": -0.144, "ATP luminescence, replicate 1": 56756, "ATP luminescence, replicate 2": 56859}

The list goes on; the last 2 above are carried over.
{"target": "CG2698", "PubChem SID": "SID104195239", "mean Z score": -0.0709, "ATP luminescence, replicate 1": 36798, "ATP luminescence, replicate 2": 56966}
{"target": "CG2698", "PubChem SID": "SID104217172", "mean Z score": -0.144, "ATP luminescence, replicate 1": 56756, "ATP luminescence, replicate 2": 56859}
{"target": "Ktl", "PubChem SID": "SID104194062", "mean Z score": -0.149, "ATP luminescence, replicate 1": 44427, "ATP luminescence, replicate 2": 46211}
{"target": "CG1161", "PubChem SID": "SID104203502", "mean Z score": -0.304, "ATP luminescence, replicate 1": 51629, "ATP luminescence, replicate 2": 51938}
{"target": "CG3397", "PubChem SID": "SID104195279", "mean Z score": -0.242, "ATP luminescence, replicate 1": 43931, "ATP luminescence, replicate 2": 42216}
{"target": "CG3397", "PubChem SID": "SID104217122", "mean Z score": -0.0107, "ATP luminescence, replicate 1": 61938, "ATP luminescence, replicate 2": 59792}
{"target": "rho-6", "PubChem SID": "SID104182380", "mean Z score": -0.64, "ATP luminescence, replicate 1": 40097, "ATP luminescence, replicate 2": 36730}
{"target": "rho-6", "PubChem SID": "SID104207614", "mean Z score": 0.0866, "ATP luminescence, replicate 1": 59616, "ATP luminescence, replicate 2": 65897}
{"target": "Agpat2", "PubChem SID": "SID104183324", "mean Z score": -0.538, "ATP luminescence, replicate 1": 44634, "ATP luminescence, replicate 2": 52864}
{"target": "Agpat2", "PubChem SID": "SID104206445", "mean Z score": -0.238, "ATP luminescence, replicate 1": 53070, "ATP luminescence, replicate 2": 60409}
{"target": "CG30043", "PubChem SID": "SID104186077", "mean Z score": -0.482, "ATP luminescence, replicate 1": 60967, "ATP luminescence, replicate 2": 64439}
{"target": "CG30043", "PubChem SID": "SID104217030", "mean Z score": 0.228, "ATP luminescence, replicate 1": 48217, "ATP luminescence, replicate 2": 56325}
{"target": "CG42514", "PubChem SID": "SID104190220", "mean Z score": -0.596, "ATP luminescence, replicate 1": 28502, "ATP luminescence, replicate 2": 26291}
{"target": "stet", "PubChem SID": "SID104188038", "mean Z score": -0.00401, "ATP luminescence, replicate 1": 67879, "ATP luminescence, replicate 2": 70973}
{"target": "stet", "PubChem SID": "SID104188075", "mean Z score": 1.43, "ATP luminescence, replicate 1": 57219, "ATP luminescence, replicate 2": 61335}
